# Assay results as given in article PMC6010280.
# T1: intein-BHMT (betaine homocysteine S-methyltransferase) (R. norvegicus) (UniProt O09171)
# T1 sequence: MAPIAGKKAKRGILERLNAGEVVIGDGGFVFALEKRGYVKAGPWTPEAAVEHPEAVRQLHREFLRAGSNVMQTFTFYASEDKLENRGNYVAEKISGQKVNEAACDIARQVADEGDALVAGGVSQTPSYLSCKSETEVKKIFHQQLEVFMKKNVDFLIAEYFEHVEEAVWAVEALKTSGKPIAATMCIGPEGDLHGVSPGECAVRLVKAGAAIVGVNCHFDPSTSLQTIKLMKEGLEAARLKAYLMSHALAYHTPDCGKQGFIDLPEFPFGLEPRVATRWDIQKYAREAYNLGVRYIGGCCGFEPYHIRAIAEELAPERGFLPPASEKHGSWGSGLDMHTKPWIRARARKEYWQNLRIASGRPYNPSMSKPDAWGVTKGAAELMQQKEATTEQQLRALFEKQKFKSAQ
# Target: T1, intein-BHMT (betaine homocysteine S-methyltransferase) (R. norvegicus)
# Assay: affinity purification with mass spectrometry; same intein-BHMT chitin column after the salt gradient; proteins recovered together with BHMT upon intein excision with 30 mM 2-mercaptoethanol, 48 h at 23°C (strong interactors); LC-MS/MS; only the target purified
row,Binder,binding
1,"Connector enhancer of kinase suppressor of ras 3 (protein, UniProt Q5SGD7 1-555) MEPVTKWSPKQVVDWTRGLDDCLQPYVHKFEREKIDGEQLLKISHQDLEELGVTRIGHQELVLEAVDLLCALNYGLETDNMKNLVLKLRASSHNLQNYISSRRKSPAYDGNTSRKPPNEFLTSVVELIGAAKALLAWLDRAPFTGITDLSVTKNKIIQLCLDLTTAVQKDCLVAEMEDKVLNVVKVLNGICDKMMHSTTDPVMSQCACLEEVHLPNVRPGEGLGMYIKSTYDGLHVITGTTENSPADRSQKIHAGDEVIQVNRQTVVGWQLKNLVKKLRENPTGVVLLLKKRPTGSFSFTPAPLKNLRWKPPLVQTSPPPTTTQSPESTMDASLKKEKPAILDLYIPPPPAVPYSPRDENVSFSYRGHTKSKQPLPGRKGSESPNSFLDQESQRRRFTITDSDQLPGYSVGTNILPIKMRGKTPSYGKPRPLSMPADGNWMGIVDPFAKPRGHGRKGEDALCRYFSNERITPIIEESASPVYRFSRPLTERHLVRGADYIRGSRCYINSDLHSSATIPFQEEGPKKKSASSSAKASSGEPSLLVSWLTRLKLLTH",binds
2,"Ephrin B1 (entry Q6P7B6) (protein, UniProt P52796 25-345) ATPLAKNLEPVSWSSLNPKFLSGKGLVIYPKIGDKLDIICPRAEAGRPYEYYKLYLVRPEQAAACSTVLDPNVLVTCNKPQQEIRFTIKFQEFSPNYMGLEFKKYHDYYITSTSNGSLEGLENREGGVCRTRTMKIVMKVGQDPNAVTPEQLTTSRPSKESDNTVKTATQAPGRGSQGDSDGKHETVNQQEKSGPGAGGSGSGDTDSFFNSKVALFAAVGAGCVIFLLIIIFLTVLLLKLRKRHRKHTQQRAAALSLSTLASPKGDSGTAGTEPSDIIIPLRTTENNYCPHYEKVSGDYGHPVYIVQEMPPQSPANIYYKV",binds

# Now from value to binder:
row,binding,Binder
1,binds,"RGD1562161 protein (protein, UniProt B2GUW9 1-744) MARSRSRSPRWKQRSLSPQSRNFEYHEERHFHGHYDPEYRNDPQRPFTWRMDDEKHGQNKPRIPPRVNSYYRSYENRSPSPNVKPVEKFDTYKPHQEYFPGRGDDDRRSQYMPTYTENAAAYMEHERDCYIPTVQGRYTDEHRGRGNGRGGKPPQMLLGMPPQMSLADSFRFKETWHEDELRHQRVPEESFPQSPRRGSEDFDTRNPFQKRYPEDHDFRKYGYISKRPTDAARYENREPARNPKWKPEHSFLPFQEKAEDWSFGTQSYRYTEREYPERSAATRVSYDYRHKHHKLSDGEQDFADGRFQKYLKEEDRKYSSLKIPGNRESDCFSTIRGRETENEQINGPFYLYQKDCVSYTHTNIKETDLASCNDKWKKKTNKEDCRKENASSSKQLDTGPKPEDKCYSLTKKKSLTIKVDRNKMDTFRSTRYSAERQTSHDLVAIGSRNDNFHPVFQHLDSTQNPEDKPTEEFAQEIITIIHKVKADSFVTPEITLHERFSRIKNKMYADFNQMQSNSDPEFHRRIDMSLADLQNKYTMVYEPDKTVVKVIEPNDLRHDIERRRKERLQNEDENIFHMASSTERIHQSSSFPKVKTIRADGFQKPPHFIKSNFRKFIQKPYINYTMQRKDAITQKIFRIEENHQNRRGSKGPFKNFLGGRFQPNYKSHLVQKSLYIQAKYQRLRFAGPRGFITNKFRNRFLRKKKEYPILPRTNHLELLQMESTLYEDLTEHLILSGIGLTLRH"
2,binds,"Microtubule associated scaffold protein 2 (protein, UniProt A0JPQ3 1-315) MGHHCCKPYICLQCLDKTSERALAKEKELSIELANIRDEVAFNTAKCEKLQKEKEALERRFEEELRRLGWQQQAEVQELQERLQQQFQAESARLQAEHQDQMLRMRCQHQEQVEDITASHEAALLEMENNHTVAITILQDDHDHKVQELMSTHEFEKKELEENFEKLRLSLQIALAPYQHLEEDMQSLKQVLEMKNQQIHLQEKKIIELEKLVEKNIILEEKIQVLQQQNEDLKARIDQNTVVTRQLSEENANLQEYVEKETQEKKRLSRTNEELLWKLQTGDPTSPIKLSPTSPVYRGSSSGPSSPARVSTTPR"
3,binds,"High affinity cGMP-specific 3’,5’-cyclic phosphodiesterase 9A (protein, UniProt Q8QZV1 1-534) MGAGSSSYRPKAIYLDIDGRIQKVVFSKYCNSSDIMDLFCIATGLPRNTTISLLTTDDAMVSIDPTMPANSERTPYKVRPVAVKQVSEREELVQGVLAQVAEQFSRAFKINELKAEVANHLAMLEKRVELEGLKVVEIEKCKSDIKKMREELAARNNRTNCPCKYSFLDNKKLTPRRDVPTYPKYLLSPETIEALRKPTFDVWLWEPNEMLSCLEHMYHDLGLVRDFSINPITLRRWLLCVHDNYRSNPFHNFRHCFCVTQMMYSMVWLCGLQEKFSQMDILVLMTAAICHDLDHPGYNNTYQINARTELAVRYNDISPLENHHCAIAFQILARPECNIFASVPPEGFRQIRQGMITLILATDMARHAEIMDSFKEKMENFDYSNEEHLTLLKMILIKCCDISNEVRPMEVAEPWVDCLLEEYFMQSDREKSEGLPVAPFMDRDKVTKATAQIGFIKFVLIPMFETVTKLFPIVEETMLRPLWESREHYEELKQLDDAMKELQKKTENLTSGATENAPEKTRDAKDNEDRSPPN"
4,binds,"Roundabout homolog 4 (protein, UniProt Q80W87 38-961) LDSPPQILVHPQDQLLQGSGPAKMSCRASGQPLPTIRWLLNGQPLSMATPDLHYLQSDGTLLLHRPPTHGRPQDDQNILSAILGVYTCEASNRLGTAVSRGARLSVAVLQEDFRIQPRDTVAVVGESLVLECGPPWGYPKPSVSWWKDGKPLVLQPGKRTVSGDSLMVARAEKNDTGTYMCMATNNAGQRESRAARVSIQESPDHKEHLELLAVRIQLENVTLLNPEPVKGPKPGPAVWLSWKVSGPAAPAQSYTALFRAQRDPRDQGSPWTEVLLDGLLNAKLGGLRWGQDYEFKVRPSSGRARGPDSNVLLLRLPEQVPSAPPQEVTLRPGNGSVFVSWAPPPAENHNGFIRGYQVWSLGNASLPAANWTVVGEQTQLEIAARMPGSYCVQVAAVTGAGAGEPSIPVCLLLEQAMEQSARDPSKHVSWTLEQLRATLKRPEVIASGAVLLWLLLLGIAVCIYRRRKAGVHLGPGLYRYTSEDAILKHRMDHSDSPWLADTWRSTSGSRDLSSSSSLSSRLGVDPRDPLDGRRSLISWDPRSPGVPLLPDTSTFYGSLIAEQTSSPPVRPSPQTPAARRLPPKLTGTSSPWASSDSLCSRRGLCSPRMSLAPAEAWKAKKKQELHQANSSPLLQGSHPMEIWAWELGSRASKNLSQSPGPNTCSPREAPGAVVAWRALGPQLHRNSSELAARPLPPTPLSLRGAPSHDPQSQCVEKLQAPSSDPLPAAPLSVLNSSRPSSPQASFLSVPSPGSSNLSSSSLSSLEEEDQDSVLTPEEVALCLELSDGEETPTNSVSPMPRAPSPPATYGYISIPTSSGLADMGRAGGGVGSEVGNLLCPPRLCPTPTPSEGSLANGWGSASEDNVPSARASLVSSSDGSFLADAHFARALAVAVDSFGFSLEPREADCVFTGMWARPPPLEWT"

# Target: T1, intein-BHMT (betaine homocysteine S-methyltransferase) (R. norvegicus)
# Assay: affinity purification with mass spectrometry; intein-BHMT held on chitin beads; rat liver cytosol first passed over a bead-only and an intein column; 10 mM sodium phosphate pH 7.4, 5 mM EDTA, 0.1 mM EGTA, 4°C; bound proteins eluted with a 0-500 mM NaCl gradient (peak at 50-100 mM NaCl); LC-MS/MS; only the target purified
row,binding,Binder
1,binds,"Coatomer subunit beta (protein, UniProt P23514 1-953) MTAAENVCYTLINVPMDSEPPSEISLKNDLEKGDVKSKTEALKKVIIMILNGEKLPGLLMTIIRFVLPLQDHTIKKLLLVFWEIVPKTTPDGRLLHEMILVCDAYRKDLQHPNEFIRGSTLRFLCKLKEAELLEPLMPAIRACLEHRHSYVRRNAVLAIYTIYRNFENLIPDAPELIHDFLVNEKDASCKRNAFMMLIHADQDRALDYLSTCIDQVQTFGDILQLVIVELIYKVCHANPSERARFIRCIYNLLQSSSPAVKYEAAGTLVTLSSAPTAIKAAAQCYIDLIIKESDNNVKLIVLDRLVELKEHPAHERVLQDLVMDILRVLSTPDLEVRKKTLQLALDLVSSRNVEELVIVLKKEVIKTNNVSEHEDTDKYRQLLVRTLHSCSVRFPDMAANVIPVLMEFLSDSNEAAAADVLEFVREAIQRFDNLRMLIVEKMLEVFHAIKSVKIYRGALWILGEYCSTKEDIQSVMTEVRRSLGEIPIVESEIKKEAGELKPEEEITVGPVQKLVTEMGTYATQSALSSSRPTKKEEDRPPLRGFLLDGDFFVAASLATTLTKIALRYVALVQEKKKQNSFVAEAMLLMATILHLGKSSLPKKPITDDDVDRISLCLKVLSECSPLMNDIFNKECRQSLSQMLSAKLEEEKLSQKKESEKRNVTVQPDDPISFMQLTAKNEMNCKEDQFQLSLLAAMGNTQRKEAADPLASKLNKVTQLTGFSDPVYAEAYVHVNQYDIVLDVLVVNQTSDTLQNCTLELATLGDLKLVEKPSPLTLAPHDFANIKANVKVASTENGIIFGNIVYDVSGAASDRNCVVLSDIHIDIMDYIQPATCTDAEFRQMWAEFEWENKVTVNTNVTDLNDYLQHILKSTNMKCLTPEKALSGYCGFMAANLYARSIFGEDALANVSIEKPVHQGPDAAVTGHIRIRAKSQGMALSLGDKINLSQKKTSL"
2,binds,"CXXC-type zinc finger protein 5, CXXC5 (protein, UniProt Q5XIQ3 1-316) MSSLGGGSQDAGGSSSSSNTSSSSGSGQKAGGTDKSATVAATAPASVADDAPPPERRNKSGIISEPLNKSLRRSRPLSHYSSFGSSGGAGSMMGGESADKAAAAAASLLANGHDLAAAMAVDKSNPTSKHKSGAVASLLSKAERATELAAEGQLTLQQFAQSTEMLKRVVQEHLPLMSEAGAGLPDMEAVAGAEALNGQSDFPYLGAFPINPGLFIMTPAGVFLAESALHMAGLAEYPMQGELASAISSGKKKRKRCGMCAPCRRRINCEQCSSCRNRKTGHQICKFRKCEELKKKPSAALEKVMLPSGAAFRWFQ"
3,binds,"RGD1306462 protein (protein, UniProt Q4V8C1 1-375) MENGERKKLTSTLSDGDHKEENKLKQGIPQDLSSSPKLDRYKIARQLTEKAIKEKKIFSIYGHYPVIRATLRRKGWVEKKFNFFPKPLQNVEDKSAETKENQEIALERFDDIHDVMSRLVKNEIPYLLWTIKRDVVDYHSLTCDQMLNHYGKTASFTTKIGLCLNMRSLPWYVQANPNTFFPRCYGLCTESEKQEFLDDFRRTVAASILKWVVHHQNYCNRAKGKSKKEEAKNGDPSPKKDPDNPDLKLPSLSGQVVDTACKVCQAYLGQLEHEDIDLSDASAEALSEEEWNDLTQQYYLLVHGNASITDSRSYFAQCQALLSKISSVNPQTEIDGIRNIWIIKPAAKSRGRGLLPTEDSILRDALWTVQTCGSQ"
4,binds,"BTB/POZ domain-containing protein KCTD7 (protein, UniProt B1WC97 1-289) MVVVNGREPDSRHSDGAMSSSEAEDDFLEPATPTATQAGHGLPLLPQEFPEVVPLNIGGAHFTTRLSTLRRYEDTMLAAMFSGRHYIPTDSEGRYFIDRDGTHFGDVLNFLRSGDLPPREHVRAVHKEAQYYAIGPLLEQLENMQPLKGEKVRQAFLGLMPYYKDHLERIVEIARLRAVQRKARFAKLKVCVFKEEMPITPYECPLLNSLRFERSESDGQLFEHHCEVDVSFGPWEAVADVYDLLHCLVTDLSAQGLTVDHQCIGVCDKHLVNHYYCKRPIYEFKITWW"

# No constants are given. Whether binding was seen depends on the method and setting. Binding seen in cells or lysates may run through a third protein. A yes stands for co-enrichment or nearness to the bait. Other partners may have been found.
